This assay deals with T1, peroxiredoxin 5 (mouse (endogenous in C2C12)) (UniProt P99029).
T1 sequence: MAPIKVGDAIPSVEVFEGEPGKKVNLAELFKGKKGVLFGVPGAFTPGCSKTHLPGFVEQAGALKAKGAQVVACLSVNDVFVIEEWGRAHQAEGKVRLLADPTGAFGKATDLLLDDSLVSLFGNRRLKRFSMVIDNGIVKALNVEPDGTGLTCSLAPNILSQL
Put plainly: co-IP; C2C12 myotube lysates mixed with the indicated antibody and protein A/G-agarose beads, 4 h at 4°C; PRDX5 precipitated, Nrf2 and UNG1 detected by Western blotting; cells treated with TBHP with or without myricanol (MY).

These are yes or no findings as the source states them, for the method shown. In cells and extracts the contact can be indirect. Some binding calls cover weakened binding; strength is not graded here.

B1: Nrf2 (protein, UniProt Q60795 1-597)
chain: MMDLELPPPGLQSQQDMDLIDILWRQDIDLGVSREVFDFSQRQKDYELEKQKKLEKERQEQLQKEQEKAFFAQFQLDEETGEFLPIQPAQHIQTDTSGSASYSQVAHIPKQDALYFEDCMQLLAETFPFVDDHESLALDIPSHAESSVFTAPHQAQSLNSSLEAAMTDLSSIEQDMEQVWQELFSIPELQCLNTENKQLADTTAVPSPEATLTEMDSNYHFYSSISSLEKEVGNCGPHFLHGFEDSFSSILSTDDASQLTSLDSNPTLNTDFGDEFYSAFIAEPSDGGSMPSSAAISQSLSELLDGTIEGCDLSLCKAFNPKHAEGTMEFNDSDSGISLNTSPSRASPEHSVESSIYGDPPPGFSDSEMEELDSAPGSVKQNGPKAQPAHSPGDTVQPLSPAQGHSAPMRESQCENTTKKEVPVSPGHQKAPFTKDKHSSRLEAHLTRDELRAKALHIPFPVEKIINLPVDDFNEMMSKEQFNEAQLALIRDIRRRGKNKVAAQNCRKRKLENIVELEQDLGHLKDEREKLLREKGENDRNLHLLKRRLSTLYLEVFSMLRDEDGKPYSPSEYSLQQTRDGNVFLVPKSKKPDTKKN
Turning to B1, the binding entry is “binds”.

These data come from PMC11167181.
